Assay results published in PubChem BioAssay AID2685 (National Center for Advancing Translational Sciences (NCATS), 2010).
Some of the results follow. Shown are side measurements of this screen, not its main read-out; they come without a call. Compounds called inactive in the main read-out are mostly missing here. Potencies come from curve fits of mixed quality, noted in brackets.

Assay: qHTS Assay for Lipid Storage Modulators in Drosophila S3 Cells;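 on cell number change: cells counted by Cell Tracker Red CMTPX staining in the red channel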
Conditions: BODIPY lipid droplet fluorescence, 18-24 h; for cell number change: measured here: cell count max response, cells fed with added oleic acid
Summary of the method: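 Drosophila S3 cells got compounds at several concentrations plus oleic acid (400 uM solution). Laser-scanning cytometry with 488 nm excitation read lipid droplets at 500-530 nm and cells at 575-640 nm. Percent activity was relative to 20 uM Triacsin C.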

[1] = measured here: lipid fluorescence (Fed channel) AC50, cells fed with added oleic acid
[2] = measured here: cell number channel AC50, cells fed with added oleic acid

Row | Structure (SMILES) | cell number change [%] | AC50 [1] | AC50 [2]
1 | COc1ccc(OCCC(=O)OCC(=O)NCCc2ccccc2)cc1 | 0.82 | 29.1 µM [falling, partial curve, poor fit] | 
2 | O=c1c2ccccc2nc(-c2ccco2)n1CCc1ccc(O)cc1 | -22.2 | 23.1 µM [rising, partial curve] | 2.06 µM [falling, partial curve, poor fit]
3 | CCCN(CCC)CCCNC(=O)c1ccc(CS(=O)(=O)c2c(Cl)cccc2Cl)o1 | 23.5 | 1.3 µM [rising, partial curve, poor fit] | 
4 | Cc1[nH]n(C)c(=O)c1C(=O)c1c(-c2ccccc2Cl)noc1C | -63.4 | 29.1 µM [falling, single point] | 29.1 µM [falling, single point]
5 | CC(=O)CCc1ccc(Oc2nc(-c3cccnc3)nc3ccccc23)cc1 | 18.9 |  | 
6 | O=C(NN1C(=O)/C(=C\c2cccnc2)SC1=S)C(c1ccccc1)c1ccccc1 | -26.1 | 16.4 µM [falling, single point] | 
7 | Cc1ccc(SCC(=O)OCC(=O)N(CC(C)C)C2CCS(=O)(=O)C2)cc1C (centres undefined) | 175 |  | 18.4 µM [rising, single point]
8 | OCC1(CCOc2ccccc2)CCN(Cc2ccccc2C(F)(F)F)CC1 | -2.75 |  | 
9 | COc1ccccc1CNC(=O)CCC(=O)N1Cc2cccc(OC)c2Oc2ncccc21 | -20.3 | 29.1 µM [falling, single point] | 
10 | COCC(=O)N1CCC(Oc2ccc(C(=O)N(C)C(C)c3ccon3)cc2)CC1 (centres undefined) | -6.93 | 6.51 µM [falling, single point] | 
11 | N#CC(=C=[N-])c1nc2ccccc2nc1-[n+]1cccc(NC(=O)c2cccs2)c1 | -23.6 | 32.6 µM [falling, single point] | 
12 | Cc1ccc(NC(=O)CN(C)C(=O)COC(=O)/C=C/c2cccs2)cc1 |  | 6.51 µM [rising, single point] | 
13 | Cc1cccc(N(CC(=O)NCc2ccco2)C(=O)CNS(=O)(=O)c2ccc(F)cc2)c1 |  | 29.1 µM [rising, single point] | 6.51 µM [rising, single point]
14 | CCC(=O)Nc1cccc(C(=O)/C=C/c2ccccc2)c1 | -38.2 |  | 
15 | COC(=O)c1ccc(N)c(N=CC2=C(O)CC(C)(C)CC2=O)c1 |  | 25.9 µM [falling, single point] | 
16 | Cc1ccccc1NC(=O)c1ccc([N+](=O)[O-])o1 | -31.5 | 29.1 µM [falling, single point] | 6.51 µM [falling, partial curve, poor fit]
17 | O=C1c2ccccc2C(=O)N1CCCn1ccnc1 | -5.51 | 6.51 µM [rising, single point] | 
18 | Brc1ccc(CNc2ccc3ncccc3c2)cc1 | -21.8 | 18.4 µM [falling, single point] | 
19 | COc1ccc(-c2ncccc2OC(=O)C23CC4CC(CC(C4)C2)C3)cc1 | -26.6 | 16.4 µM [falling, single point] | 
20 | CN(C)c1ccc(S(=O)(=O)NCC(=O)N2CCN(c3ccccc3)CC2)cc1[N+](=O)[O-] | 29.7 | 18.4 µM [rising, single point] | 

Row | Structure (SMILES) | cell number change [%] | AC50 [1] | AC50 [2]
21 | CC(=O)Nc1nc2n(n1)C(c1ccc(F)cc1)C=C(c1ccccc1)N2 (centres undefined) | -22.8 | 0.184 µM [rising, full curve] | 
22 | O=C(Nc1ccc(C(F)(F)F)cc1Cl)c1ccc(Cn2cc(Br)cn2)o1 | 4.21 | 25.9 µM [falling, single point] | 
23 | COC(=O)C1CCN(S(=O)(=O)Cc2ccccc2Cl)CC1 | 11.9 | 29.1 µM [falling, single point] | 
24 | CCOC(=O)CC1(NC(=O)C2CCC(=O)N(Cc3ccccc3F)C2)CCCCC1 (centres undefined) | -76.9 | 18.4 µM [falling, single point] | 29.1 µM [falling, single point]
25 | Cc1nn2c(=O)cc(CSc3ccccc3NC(=O)c3ccccc3F)nc2s1 | -21.4 |  | 
26 | CCCCCCCC(=O)OC(CN1CCCCC1)CN1CCCC1=O (centres undefined) | 10.6 | 6.51 µM [falling, single point] | 
27 | COC(=O)C1=C(C)N(c2cccc3ccccc23)C(=O)C1 | 6.88 |  | 
28 | CN(CC(=O)Nc1ccc(Cl)c(C(F)(F)F)c1)C(=O)c1cc(-c2ccncc2)nc2ccccc12 | -16.9 |  | 
29 | Cc1ccc(S(=O)(=O)n2nc(OC(=O)c3cccc(F)c3)cc2N)cc1 |  | 0.58 µM [falling, single point] | 0.82 µM [rising, full curve, poor fit]
30 | Cc1ccc(NC(=O)/C(C#N)=C/c2ccsc2)c(C)c1 | -7.71 | 2.91 µM [rising, partial curve] | 
31 | COc1cc(/C=N/NC(=S)Nc2cccc(S(=O)(=O)N(C)C)c2)cc(OC)c1O | -20.9 | 29.1 µM [falling, single point] | 
32 | c1ccc(-c2oc3ncnc(NCCCN4CCOCC4)c3c2-c2ccccc2)cc1 | -39.4 | 29.1 µM [falling, single point] | 20.6 µM [falling, partial curve]
33 | Cc1nn(C(C)(C)C)c(N)c1-c1ccccc1 | 1.93 |  | 
34 | COc1ccc(C(=O)Oc2cccc(Nc3ncnc4ccccc34)c2)cc1OC | -27.7 |  | 
35 | Cc1sc(NC(=O)C2C3CCC(O3)C2C(=O)O)nc1-c1ccc(CC(C)C)cc1 (centres undefined) | 2.59 | 29.1 µM [falling, partial curve] | 
36 | CCC(CC)C(=O)c1c[nH]c(C(=O)NCC2CCCO2)c1 (centres undefined) | -16.8 | 2.06 µM [rising, partial curve, poor fit] | 
37 | C=CCSc1nnc(NC(=O)Cc2ccc(OC)c(OC)c2)s1 | 42.8 |  | 29.1 µM [rising, single point]
38 | O=C(COC(=O)c1ccc(Cl)c(S(=O)(=O)N2CCCCC2)c1)NCC1CCCCC1 | -1.07 | 0.231 µM [falling, full curve, poor fit] | 
39 | CCn1cc(/C=N/NS(=O)(=O)c2ccc(OC)cc2)c(C)n1 | 49.7 |  | 
40 | COC(=O)c1ccc(/C=C2\SC(=S)N(CCCC(=O)NCCCN3CCOCC3)C2=O)cc1 | 15.4 | 5.17 µM [rising, single point] | 

Row | Structure (SMILES) | cell number change [%] | AC50 [1] | AC50 [2]
41 | COCCCNC(=O)c1c(N)n(/N=C/c2cccs2)c2nc3ccccc3nc12 | -22.1 |  | 
42 | COc1ccc(OCc2nnc(SCC(=O)N3CCCc4ccccc43)n2-c2ccc(C)cc2)cc1 | 20 |  | 0.58 µM [rising, partial curve]
43 | COc1ccc(CCN2C(=O)CC(N3CCOCC3)C2=O)cc1 (centres undefined) | 17.7 | 6.51 µM [rising, partial curve] | 
44 | O=C(CC1S/C(=N\S(=O)(=O)c2ccc(F)cc2)N(c2ccccc2)C1=O)Nc1ccccc1 (centres undefined) | -64.4 | 29.1 µM [falling, single point] | 14.6 µM [falling, partial curve, poor fit]
45 | Cc1ccc(S(=O)(=O)N(C)C)cc1NC(=O)COC(=O)CN1C(=O)c2ccccc2C1=O | -36.7 | 5.17 µM [falling, partial curve, poor fit] | 4.61 µM [falling, full curve]
46 | COc1ccc(C2NC(C(=O)O)Cc3c2[nH]c2ccccc32)cc1OC (centres undefined) | 34.3 |  | 14.6 µM [rising, partial curve, poor fit]
47 | CCn1c(SCC(=O)N/N=C/C=C/c2ccco2)nc2ccccc21 | -19.7 | 0.00461 µM [falling, full curve, poor fit] | 
48 | CN(C)/C=N/c1c(C#N)cnn1-c1ncnc2sc(-c3ccccc3)cc12 | 2.92 | 0.326 µM [rising, full curve, poor fit] | 
49 | COc1ccc(CC(=O)NNC(=S)Nc2ccc(Br)cc2)cc1 | -10.7 | 11.6 µM [rising, partial curve] | 
50 | CCOC(=O)CCCSc1nc(-c2ccc3c(c2)OCO3)cc(C(F)(F)F)c1C#N | 23.7 | 0.0366 µM [rising, full curve, poor fit] | 
51 | CN(C)CCCN1C(=O)CSC1c1ccccc1 (centres undefined) | -12.1 | 18.4 µM [falling, partial curve, poor fit] | 
52 | COc1cc(-c2nc(-c3ccccc3)c(-c3cccs3)[nH]2)cc(OC)c1OC | 16.1 | 2.06 µM [rising, partial curve] | 
53 | CC(C)Cc1nc2sc3c(=O)[nH]cnc3c2c2c1CCC2 | -15.7 |  | 
54 | O=C(O)C1C2C=CC3(CN(CC(O)COc4ccccc4)C(=O)C13)O2 (centres undefined) | -67.6 | 18.4 µM [falling, single point] | 29.1 µM [falling, single point]
55 | O=C1CCCCC/C1=N/Nc1ccc(OCc2ccccc2)cc1 | -13.8 | 10.3 µM [falling, single point] | 
56 | COc1cccc(C2c3c(-c4ccccc4O)n[nH]c3C(=O)N2Cc2ccco2)c1 (centres undefined) | -7.87 | 0.461 µM [rising, single point] | 
57 | CCO[C@@H]1OC(C(=O)O)=C[C@H](c2coc3ccccc3c2=O)[C@H]1CCCO | -5.83 | 29.1 µM [falling, single point] | 
58 | Cn1c(=S)n(/N=C/c2cccs2)c2ccccc21 | 10.4 |  | 
59 | O=C1C2CC=CCC2C(=O)N1c1ccc(NCCc2ccccc2F)c([N+](=O)[O-])c1 (centres undefined) | 26.5 | 2.06 µM [rising, full curve] | 
60 | Cc1nc(=O)c(-c2ccccc2)c(C)n1-c1ccc(S(N)(=O)=O)cc1 | -8.32 | 4.61 µM [falling, full curve, poor fit] | 

Record cards, from the list above.
`COc1cc(/C=N/NC(=S)Nc2cccc(S(=O)(=O)N(C)C)c2)cc(OC)c1O` is listed with cell number change [%]: -20.9; AC50 [1]: 29.1 µM [falling, single point]
`Cc1ccc(SCC(=O)OCC(=O)N(CC(C)C)C2CCS(=O)(=O)C2)cc1C` (centres undefined) is listed with cell number change [%]: 175; AC50 [2]: 18.4 µM [rising, single point]
`COc1ccc(C(=O)Oc2cccc(Nc3ncnc4ccccc34)c2)cc1OC` is listed with cell number change [%]: -27.7
`COc1ccccc1CNC(=O)CCC(=O)N1Cc2cccc(OC)c2Oc2ncccc21` is listed with cell number change [%]: -20.3; AC50 [1]: 29.1 µM [falling, single point]
